Laboratory results published in ChEMBL document CHEMBL1938289, “Facile synthesis of tetracyclic azepine and oxazocine derivatives and their potential as MAPKAP-K2 (MK2) inhibitors” (Bioorg Med Chem Lett, 2012).
Values after ≈ are worked out from the molar mass of the structure shown.

Assay: Kinetic solubility of the compound at pH 7.4
Details: buffer

`Cc1cnc2n1-c1ccc(N3CCNCC3)cc1Cc1cc(-c3ccc(Cl)cc3)oc1-2` showed a solubility kinetic of 20 µM (≈ 8.62 µg/mL).
